# Results published in patent USRE49099.
# B1: Hu1573-2 (antibody, V domains shown)
# VH: EVQLVESGGGLVQPGGSLRLSCAASGFTFSNYYLNWVRQAPGKGLEWVGDIRLKSNNYEKHYAESVKGRFTISRDDSKNSLYLQMNSLKTEDTAVYYCIREGDYFDYWGQGTTVTVSS
# VL: DIVLTQTPLSLSVTPGQPASISCRASESVDSFGATFMHWYLQKPGQPPQLLIYLASNLESGVPDRFSGSGSRTDFTLKISRVEAEDVGVYYCQQNNEDPYTFGQGTKLEIKR
# B2: Hu1573-3 (antibody, V domains shown)
# VH: B1 VH with L81V
# VL: B1 VL with L4M, R72G
# B3: Hu1573-4 (antibody, V domains shown)
# VH: B1 VH with L81V
# VL: B1 VL with R72G
# B4: Hu1573-5 (antibody, V domains shown)
# VH: B1 VH with L81V
# VL: B1 VL with L4M
# B5: Hu1573-6 (antibody, V domains shown)
# VH: B1 VH with G49A
# VL: B1 VL with L4M, R72G
# B6: Hu1573-7 (antibody, V domains shown)
# VH: B1 VH with G49A
# VL: B1 VL with R72G
# B7: Hu1573-8 (antibody, V domains shown)
# VH: B1 VH with G49A
# VL: B1 VL with L4M
# B8: Hu1573-9 (antibody, V domains shown)
# VH: B1 VH with N79S
# VL: B1 VL with L4M, R72G
# B9: Hu1573-10 (antibody, V domains shown)
# VH: B1 VH with N79S
# VL: B1 VL with R72G
# B10: Hu1573-11 (antibody, V domains shown)
# VH: B1 VH with N79S
# VL: B1 VL with L4M
# B11: Hu1573-12 (antibody, V domains shown)
# VH: B1 VH with G49A, L81V
# VL: B1 VL with L4M, R72G
# B12: Hu1573-13 (antibody, V domains shown)
# VH: B1 VH with G49A, L81V
# VL: B1 VL with R72G
# B13: Hu1573-14 (antibody, V domains shown)
# VH: B1 VH with G49A, L81V
# VL: B1 VL with L4M
# B14: Hu1573-15 (antibody, V domains shown)
# VH: B1 VH with G49A, N79S, L81V
# VL: B1 VL with L4M, R72G
# B15: Hu1573-16 (antibody, V domains shown)
# VH: B1 VH with G49A, N79S, L81V
# VL: B1 VL with R72G
# B16: Hu1573-17 (antibody, V domains shown)
# VH: B1 VH with G49A, N79S, L81V
# VL: B1 VL with L4M
# Molecular target: human activated protein C (human)
# Experiment: ELISA, coated antigen
row,Binder,binding
1,B1,binds
2,B2,binds
3,B3,binds
4,B4,binds
5,B5,binds
6,B6,binds
7,B7,binds
8,B8,binds
9,B9,binds
10,B10,binds
11,B11,binds
12,B12,binds
13,B13,binds
14,B14,binds
15,B15,binds
16,B16,binds

# Positions count from the first letter of the chain named. Results are given in words; binding and its absence hold for the method and conditions named. A result given as binding can be weak or reduced; the word gives no strength.
